For eleven molecules, binding results are on record in paper PMC12650596.

Amino acid sequences for entries named in this document (tags omitted). A change or cut given only in a name is not applied to a line headed by its entry.
UniProt P20020: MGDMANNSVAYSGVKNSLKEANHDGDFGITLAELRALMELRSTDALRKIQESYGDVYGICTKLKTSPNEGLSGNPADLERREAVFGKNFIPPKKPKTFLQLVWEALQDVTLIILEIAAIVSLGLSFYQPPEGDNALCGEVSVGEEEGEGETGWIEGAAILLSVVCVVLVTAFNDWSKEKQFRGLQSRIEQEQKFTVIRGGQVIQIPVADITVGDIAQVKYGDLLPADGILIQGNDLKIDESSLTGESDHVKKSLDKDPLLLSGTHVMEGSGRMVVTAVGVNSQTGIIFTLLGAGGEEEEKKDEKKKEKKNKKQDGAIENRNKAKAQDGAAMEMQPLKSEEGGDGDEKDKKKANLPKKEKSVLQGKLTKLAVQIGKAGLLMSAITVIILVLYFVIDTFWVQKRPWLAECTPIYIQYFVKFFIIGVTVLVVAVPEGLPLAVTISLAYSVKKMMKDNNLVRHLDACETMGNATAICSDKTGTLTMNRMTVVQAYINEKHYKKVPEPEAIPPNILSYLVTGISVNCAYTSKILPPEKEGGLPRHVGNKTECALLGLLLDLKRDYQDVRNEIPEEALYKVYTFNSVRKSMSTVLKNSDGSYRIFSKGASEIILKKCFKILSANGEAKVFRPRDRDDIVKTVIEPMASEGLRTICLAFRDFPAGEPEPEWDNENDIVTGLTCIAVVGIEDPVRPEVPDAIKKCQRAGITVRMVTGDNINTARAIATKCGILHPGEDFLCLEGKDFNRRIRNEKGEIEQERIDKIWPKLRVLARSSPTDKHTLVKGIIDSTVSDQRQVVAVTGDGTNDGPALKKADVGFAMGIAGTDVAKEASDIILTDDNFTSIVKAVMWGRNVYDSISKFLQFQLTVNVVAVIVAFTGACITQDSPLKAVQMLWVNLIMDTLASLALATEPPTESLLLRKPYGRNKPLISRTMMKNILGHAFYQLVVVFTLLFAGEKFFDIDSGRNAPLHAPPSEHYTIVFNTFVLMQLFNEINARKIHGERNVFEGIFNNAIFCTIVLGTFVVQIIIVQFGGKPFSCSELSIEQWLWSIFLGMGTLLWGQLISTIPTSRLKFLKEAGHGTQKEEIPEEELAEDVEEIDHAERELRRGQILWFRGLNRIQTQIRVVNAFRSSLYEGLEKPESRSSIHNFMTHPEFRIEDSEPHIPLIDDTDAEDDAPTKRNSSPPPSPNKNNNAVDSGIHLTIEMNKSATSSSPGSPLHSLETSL
UniProt P11940: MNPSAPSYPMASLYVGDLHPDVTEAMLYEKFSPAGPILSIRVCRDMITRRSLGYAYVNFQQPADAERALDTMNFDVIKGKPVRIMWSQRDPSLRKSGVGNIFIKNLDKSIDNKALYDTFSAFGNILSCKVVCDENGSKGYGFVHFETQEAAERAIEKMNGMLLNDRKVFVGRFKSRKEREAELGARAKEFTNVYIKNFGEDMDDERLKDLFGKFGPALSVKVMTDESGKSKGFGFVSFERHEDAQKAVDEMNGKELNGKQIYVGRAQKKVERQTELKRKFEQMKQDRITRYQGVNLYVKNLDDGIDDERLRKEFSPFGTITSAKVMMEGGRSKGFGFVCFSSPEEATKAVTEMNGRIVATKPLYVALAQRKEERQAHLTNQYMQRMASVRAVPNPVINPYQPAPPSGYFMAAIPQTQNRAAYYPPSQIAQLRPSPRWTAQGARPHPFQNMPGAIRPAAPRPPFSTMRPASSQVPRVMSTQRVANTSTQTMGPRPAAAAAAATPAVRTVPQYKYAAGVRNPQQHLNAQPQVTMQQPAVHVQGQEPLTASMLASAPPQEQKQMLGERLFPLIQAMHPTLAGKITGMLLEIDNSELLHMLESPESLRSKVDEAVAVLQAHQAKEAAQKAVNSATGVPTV
UniProt Q8N3R9: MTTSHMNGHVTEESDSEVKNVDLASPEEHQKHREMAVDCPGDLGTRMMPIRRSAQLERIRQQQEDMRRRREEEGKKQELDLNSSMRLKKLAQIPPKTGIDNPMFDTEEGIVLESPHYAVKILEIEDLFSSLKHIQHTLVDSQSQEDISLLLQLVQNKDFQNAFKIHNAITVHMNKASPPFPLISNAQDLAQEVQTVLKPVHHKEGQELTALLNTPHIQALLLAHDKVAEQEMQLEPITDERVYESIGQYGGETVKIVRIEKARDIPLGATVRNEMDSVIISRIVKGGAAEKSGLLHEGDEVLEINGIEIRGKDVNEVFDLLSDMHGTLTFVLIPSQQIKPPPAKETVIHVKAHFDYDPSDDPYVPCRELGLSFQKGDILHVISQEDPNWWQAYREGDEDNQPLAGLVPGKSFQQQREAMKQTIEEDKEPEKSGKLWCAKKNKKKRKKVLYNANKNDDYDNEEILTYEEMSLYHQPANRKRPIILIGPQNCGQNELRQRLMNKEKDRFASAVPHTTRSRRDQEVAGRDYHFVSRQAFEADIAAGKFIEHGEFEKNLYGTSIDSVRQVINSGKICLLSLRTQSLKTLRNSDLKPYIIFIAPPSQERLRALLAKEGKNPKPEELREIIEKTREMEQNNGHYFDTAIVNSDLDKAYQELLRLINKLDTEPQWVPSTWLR
UniProt Q00341: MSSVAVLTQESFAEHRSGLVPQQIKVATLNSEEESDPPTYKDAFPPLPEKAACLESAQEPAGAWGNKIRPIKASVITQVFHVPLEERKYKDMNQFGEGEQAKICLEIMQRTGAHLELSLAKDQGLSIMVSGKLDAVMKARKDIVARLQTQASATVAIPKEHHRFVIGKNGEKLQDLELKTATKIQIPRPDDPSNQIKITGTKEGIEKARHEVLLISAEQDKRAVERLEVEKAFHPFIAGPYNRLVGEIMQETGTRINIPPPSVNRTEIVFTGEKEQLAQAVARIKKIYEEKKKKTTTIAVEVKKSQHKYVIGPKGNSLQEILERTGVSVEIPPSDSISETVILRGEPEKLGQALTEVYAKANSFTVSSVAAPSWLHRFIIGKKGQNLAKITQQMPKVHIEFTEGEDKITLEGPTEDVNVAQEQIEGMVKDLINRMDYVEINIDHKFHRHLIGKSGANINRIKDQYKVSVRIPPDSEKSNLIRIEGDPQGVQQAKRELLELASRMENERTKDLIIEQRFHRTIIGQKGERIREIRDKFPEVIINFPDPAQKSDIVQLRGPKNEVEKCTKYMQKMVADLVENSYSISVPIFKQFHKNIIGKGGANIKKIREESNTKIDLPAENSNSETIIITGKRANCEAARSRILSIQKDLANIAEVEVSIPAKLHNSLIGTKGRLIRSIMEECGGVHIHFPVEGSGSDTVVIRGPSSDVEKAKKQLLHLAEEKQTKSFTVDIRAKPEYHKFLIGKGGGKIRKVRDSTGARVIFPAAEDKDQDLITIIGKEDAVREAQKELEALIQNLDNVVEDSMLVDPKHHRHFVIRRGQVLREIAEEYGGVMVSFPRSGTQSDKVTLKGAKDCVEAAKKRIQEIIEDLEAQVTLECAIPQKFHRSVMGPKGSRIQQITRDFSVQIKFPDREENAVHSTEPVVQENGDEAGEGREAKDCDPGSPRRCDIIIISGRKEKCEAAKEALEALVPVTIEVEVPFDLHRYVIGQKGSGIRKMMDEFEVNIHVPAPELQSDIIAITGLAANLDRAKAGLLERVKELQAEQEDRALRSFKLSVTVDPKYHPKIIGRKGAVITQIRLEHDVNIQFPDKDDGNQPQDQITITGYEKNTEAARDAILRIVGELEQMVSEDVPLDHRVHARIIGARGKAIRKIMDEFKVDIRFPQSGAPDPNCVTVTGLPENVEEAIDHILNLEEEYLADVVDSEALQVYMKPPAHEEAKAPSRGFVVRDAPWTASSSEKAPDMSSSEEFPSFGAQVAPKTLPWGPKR
UniProt P05556: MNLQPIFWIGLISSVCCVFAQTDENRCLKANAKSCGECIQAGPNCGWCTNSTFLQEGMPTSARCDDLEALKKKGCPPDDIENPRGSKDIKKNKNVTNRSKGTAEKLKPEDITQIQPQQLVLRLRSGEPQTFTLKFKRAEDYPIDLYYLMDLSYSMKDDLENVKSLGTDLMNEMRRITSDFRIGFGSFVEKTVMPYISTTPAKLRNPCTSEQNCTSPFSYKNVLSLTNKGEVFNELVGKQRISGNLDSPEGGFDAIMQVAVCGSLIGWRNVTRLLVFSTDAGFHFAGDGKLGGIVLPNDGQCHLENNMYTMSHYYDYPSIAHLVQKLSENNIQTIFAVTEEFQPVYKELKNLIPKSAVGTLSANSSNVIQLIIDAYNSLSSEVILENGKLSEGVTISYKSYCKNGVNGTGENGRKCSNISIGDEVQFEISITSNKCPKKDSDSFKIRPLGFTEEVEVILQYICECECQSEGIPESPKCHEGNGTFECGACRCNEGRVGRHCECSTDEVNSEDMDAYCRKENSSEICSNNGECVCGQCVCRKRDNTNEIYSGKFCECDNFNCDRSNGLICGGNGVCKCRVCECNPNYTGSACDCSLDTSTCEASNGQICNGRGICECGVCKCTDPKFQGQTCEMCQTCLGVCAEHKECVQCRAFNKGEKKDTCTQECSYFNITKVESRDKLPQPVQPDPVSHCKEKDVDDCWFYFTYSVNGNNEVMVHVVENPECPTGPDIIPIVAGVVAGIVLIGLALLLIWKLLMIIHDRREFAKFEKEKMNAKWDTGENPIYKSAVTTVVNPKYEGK

No constants are given. Whether binding was seen depends on the method and setting. In cells and extracts the contact can be indirect. Here binding means that the protein was enriched with, or labelled near, the bait; the list need not be complete. A no says only that the protein was not detected with the bait. Where a sequence is shown, tags or fusion partners need not be part of it.

The chains are these.
T1: EGFP-hPMP22-BioID2 recombinant fusion protein (peripheral myelin protein 22) (human) (UniProt Q01453)
T1 sequence: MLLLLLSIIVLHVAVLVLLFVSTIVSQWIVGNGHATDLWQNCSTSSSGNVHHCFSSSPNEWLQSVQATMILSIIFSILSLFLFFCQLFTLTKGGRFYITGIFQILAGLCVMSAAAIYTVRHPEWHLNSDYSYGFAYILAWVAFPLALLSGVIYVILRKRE

B1: Glutamine--tRNA ligase (QARS1) (enzyme, UniProt P47897 1-775)
chain: MAALDSLSLFTSLGLSEQKARETLKNSALSAQLREAATQAQQTLGSTIDKATGILLYGLASRLRDTRRLSFLVSYIASKKIHTEPQLSAALEYVRSHPLDPIDTVDFERECGVGVIVTPEQIEEAVEAAINRHRPQLLVERYHFNMGLLMGEARAVLKWADGKMIKNEVDMQVLHLLGPKLEADLEKKFKVAKARLEETDRRTAKDVVENGETADQTLSLMEQLRGEALKFHKPGENYKTPGYVVTPHTMNLLKQHLEITGGQVRTRFPPEPNGILHIGHAKAINFNFGYAKANNGICFLRFDDTNPEKEEAKFFTAICDMVAWLGYTPYKVTYASDYFDQLYAWAVELIRRGLAYVCHQRGEELKGHNTLPSPWRDRPMEESLLLFEAMRKGKFSEGEATLRMKLVMEDGKMDPVAYRVKYTPHHRTGDKWCIYPTYDYTHCLCDSIEHITHSLCTKEFQARRSSYFWLCNALDVYCPVQWEYGRLNLHYAVVSKRKILQLVATGAVRDWDDPRLFTLTALRRRGFPPEAINNFCARVGVTVAQTTMEPHLLEACVRDVLNDTAPRAMAVLESLRVIITNFPAAKSLDIQVPNFPADETKGFHQVPFAPIVFIERTDFKEEPEPGFKRLAWGQPVGLRHTGYVIELQHVVKGPSGCVESLEVTCRRADAGEKPKAFIHWVSQPLMCEVRLYERLFQHKNPEDPTEVPGGFLSDLNLASLHVVDAALVDCSVALAKPFDKFQFERLGYFSVDPDSHQGKLVFNRTVTLKEDPGKV
B2: Isoform 13 of Sodium bicarbonate cotransporter 3 (SLC4A7) (protein, UniProt Q9Y6M7-13 1-1135)
chain: MEADGAGEQMRPLLTRVTSRGPDEEAVVDLGKTSSTVNTKFEKEELESHRAVYIGVHVPFSKESRRRHRHRGHKHHHRRRKDKESDKEDGRESPSYDTPSQRVQFILGTEDDDEEHIPHDLFTEMDELCYRDGEEYEWKETARWLKFEEDVEDGGDRWSKPYVATLSLHSLFELRSCILNGTVMLDMRASTLDEIADMVLDNMIASGQLDESIRENVREALLKRHHHQNEKRFTSRIPLVRSFADIGKKHSDPHLLERNGILASPQSAPGNLDNSKSGEIKGNGSGGSRENSTVDFSKVDMNFMRKIPTGAEASNVLVGEVDFLERPIIAFVRLAPAVLLTGLTEVPVPTRFLFLLLGPAGKAPQYHEIGRSIATLMTDEIFHDVAYKAKDRNDLLSGIDEFLDQVTVLPPGEWDPSIRIEPPKSVPSQEKRKIPVFHNGSTPTLGETPKEAAHHAGPELQRTGRLFGGLILDIKRKAPFFLSDFKDALSLQCLASILFLYCACMSPVITFGGLLGEATEGRISAIESLFGASLTGIAYSLFAGQPLTILGSTGPVLVFEKILYKFCRDYQLSYLSLRTSIGLWTSFLCIVLVATDASSLVCYITRFTEEAFAALICIIFIYEALEKLFDLGETYAFNMHNNLDKLTSYSCVCTEPPNPSNETLAQWKKDNITAHNISWRNLTVSECKKLRGVFLGSACGHHGPYIPDVLFWCVILFFTTFFLSSFLKQFKTKRYFPTKVRSTISDFAVFLTIVIMVTIDYLVGVPSPKLHVPEKFEPTHPERGWIISPLGDNPWWTLLIAAIPALLCTILIFMDQQITAVIINRKEHKLKKGAGYHLDLLMVGVMLGVCSVMGLPWFVAATVLSISHVNSLKVESECSAPGEQPKFLGIREQRVTGLMIFILMGLSVFMTSVLKFIPMPVLYGVFLYMGVSSLKGIQLFDRIKLFGMPAKHQPDLIYLRYVPLWKVHIFTVIQLTCLVLLWVIKVSAAAVVFPMMVLALVFVRKLMDLCFTKRELSWLDDLMPESKKKKEDDKKKKEKEEAERMLQDDDDTVHLPFEGGSLLQIPVKALKYSVDPSIVNISDEMAKTAQWKALSMNTENAKVTRSNMSPDKPVSVKISFEDEPRKKYVDAETSL
B3: Treacle protein (TCOF1) (protein, UniProt Q13428 1-1488)
chain: MAEARKRRELLPLIYHHLLRAGYVRAAREVKEQSGQKCFLAQPVTLLDIYTHWQQTSELGRKRKAEEDAALQAKKTRVSDPISTSESSEEEEEAEAETAKATPRLASTNSSVLGADLPSSMKEKAKAETEKAGKTGNSMPHPATGKTVANLLSGKSPRKSAEPSANTTLVSETEEEGSVPAFGAAAKPGMVSAGQADSSSEDTSSSSDETDVEGKPSVKPAQVKASSVSTKESPARKAAPAPGKVGDVTPQVKGGALPPAKRAKKPEEESESSEEGSESEEEAPAGTRSQVKASEKILQVRAASAPAKGTPGKGATPAPPGKAGAVASQTKAGKPEEDSESSSEESSDSEEETPAAKALLQAKASGKTSQVGAASAPAKESPRKGAAPAPPGKTGPAVAKAQAGKREEDSQSSSEESDSEEEAPAQAKPSGKAPQVRAASAPAKESPRKGAAPAPPRKTGPAAAQVQVGKQEEDSRSSSEESDSDREALAAMNAAQVKPLGKSPQVKPASTMGMGPLGKGAGPVPPGKVGPATPSAQVGKWEEDSESSSEESSDSSDGEVPTAVAPAQEKSLGNILQAKPTSSPAKGPPQKAGPVAVQVKAEKPMDNSESSEESSDSADSEEAPAAMTAAQAKPALKIPQTKACPKKTNTTASAKVAPVRVGTQAPRKAGTATSPAGSSPAVAGGTQRPAEDSSSSEESDSEEEKTGLAVTVGQAKSVGKGLQVKAASVPVKGSLGQGTAPVLPGKTGPTVTQVKAEKQEDSESSEEESDSEEAAASPAQVKTSVKKTQAKANPAAARAPSAKGTISAPGKVVTAAAQAKQRSPSKVKPPVRNPQNSTVLARGPASVPSVGKAVATAAQAQTGPEEDSGSSEEESDSEEEAETLAQVKPSGKTHQIRAALAPAKESPRKGAAPTPPGKTGPSAAQAGKQDDSGSSSEESDSDGEAPAAVTSAQVIKPPLIFVDPNRSPAGPAATPAQAQAASTPRKARASESTARSSSSESEDEDVIPATQCLTPGIRTNVVTMPTAHPRIAPKASMAGASSSKESSRISDGKKQEGPATQVSKKNPASLPLTQAALKVLAQKASEAQPPVARTQPSSGVDSAVGTLPATSPQSTSVQAKGTNKLRKPKLPEVQQATKAPESSDDSEDSSDSSSGSEEDGEGPQGAKSAHTLGPTPSRTETLVEETAAESSEDDVVAPSQSLLSGYMTPGLTPANSQASKATPKLDSSPSVSSTLAAKDDPDGKQEAKPQQAAGMLSPKTGGKEAASGTTPQKSRKPKKGAGNPQASTLALQSNITQCLLGQPWPLNEAQVQASVVKVLTELLEQERKKVVDTTKESSRKGWESRKRKLSGDQPAARTPRSKKKKKLGAGEGGEASVSPEKTSTTSKGKAKRDKASGDVKEKKGKGSLGSQGAKDEPEEELQKGMGTVEGGDQSNPKSKKEKKKSDKRKKDKEKKEKKKKAKKASTKDSESPSQKKKKKKKKTAEQTV
B4: Structural maintenance of chromosomes protein (SMC1A) (protein, UniProt Q14683 1-1233)
chain: MGFLKLIEIENFKSYKGRQIIGPFQRFTAIIGPNGSGKSNLMDAISFVLGEKTSNLRVKTLRDLIHGAPVGKPAANRAFVSMVYSEEGAEDRTFARVIVGGSSEYKINNKVVQLHEYSEELEKLGILIKARNFLVFQGAVESIAMKNPKERTALFEEISRSGELAQEYDKRKKEMVKAEEDTQFNYHRKKNIAAERKEAKQEKEEADRYQRLKDEVVRAQVQLQLFKLYHNEVEIEKLNKELASKNKEIEKDKKRMDKVEDELKEKKKELGKMMREQQQIEKEIKEKDSELNQKRPQYIKAKENTSHKIKKLEAAKKSLQNAQKHYKKRKGDMDELEKEMLSVEKARQEFEERMEEESQSQGRDLTLEENQVKKYHRLKEEASKRAATLAQELEKFNRDQKADQDRLDLEERKKVETEAKIKQKLREIEENQKRIEKLEEYITTSKQSLEEQKKLEGELTEEVEMAKRRIDEINKELNQVMEQLGDARIDRQESSRQQRKAEIMESIKRLYPGSVYGRLIDLCQPTQKKYQIAVTKVLGKNMDAIIVDSEKTGRDCIQYIKEQRGEPETFLPLDYLEVKPTDEKLRELKGAKLVIDVIRYEPPHIKKALQYACGNALVCDNVEDARRIAFGGHQRHKTVALDGTLFQKSGVISGGASDLKAKARRWDEKAVDKLKEKKERLTEELKEQMKAKRKEAELRQVQSQAHGLQMRLKYSQSDLEQTKTRHLALNLQEKSKLESELANFGPRINDIKRIIQSREREMKDLKEKMNQVEDEVFEEFCREIGVRNIREFEEEKVKRQNEIAKKRLEFENQKTRLGIQLDFEKNQLKEDQDKVHMWEQTVKKDENEIEKLKKEEQRHMKIIDETMAQLQDLKNQHLAKKSEVNDKNHEMEEIRKKLGGANKEMTHLQKEVTAIETKLEQKRSDRHNLLQACKMQDIKLPLSKGTMDDISQEEGSSQGEDSVSGSQRISSIYAREALIEIDYGDLCEDLKDAQAEEEIKQEMNTLQQKLNEQQSVLQRIAAPNMKAMEKLESVRDKFQETSDEFEAARKRAKKAKQAFEQIKKERFDRFNACFESVATNIDEIYKALSRNSSAQAFLGPENPEEPYLDGINYNCVAPGKRFRPMDNLSGGEKTVAALALLFAIHSYKPAPFFVLDEIDAALDNTNIGKVANYIKEQSTCNFQAIVISLKEEFYTKAESLIGVYPEQGDCVISKVLTFDLTKYPDANPNPNEQ
B5: DNA replication licencing factor MCM5 (MCM5) (protein, UniProt P33992 1-734)
chain: MSGFDDPGIFYSDSFGGDAQADEGQARKSQLQRRFKEFLRQYRVGTDRTGFTFKYRDELKRHYNLGEYWIEVEMEDLASFDEDLADYLYKQPAEHLQLLEEAAKEVADEVTRPRPSGEEVLQDIQVMLKSDASPSSIRSLKSDMMSHLVKIPGIIIAASAVRAKATRISIQCRSCRNTLTNIAMRPGLEGYALPRKCNTDQAGRPKCPLDPYFIMPDKCKCVDFQTLKLQELPDAVPHGEMPRHMQLYCDRYLCDKVVPGNRVTIMGIYSIKKFGLTTSRGRDRVGVGIRSSYIRVLGIQVDTDGSGRSFAGAVSPQEEEEFRRLAALPNVYEVISKSIAPSIFGGTDMKKAIACLLFGGSRKRLPDGLTRRGDINLLMLGDPGTAKSQLLKFVEKCSPIGVYTSGKGSSAAGLTASVMRDPSSRNFIMEGGAMVLADGGVVCIDEFDKMREDDRVAIHEAMEQQTISIAKAGITTTLNSRCSVLAAANSVFGRWDETKGEDNIDFMPTILSRFDMIFIVKDEHNEERDVMLAKHVITLHVSALTQTQAVEGEIDLAKLKKFIAYCRVKCGPRLSAEAAEKLKNRYIIMRSGARQHERDSDRRSSIPITVRQLEAIVRIAEALSKMKLQPFATEADVEEALRLFQVSTLDAALSGTLSGVEGFTSQEDQEMLSRIEKQLKRRFAIGSQVSEHSIIKDFTKQKYPEHAIHKVLQLMLRRGEIQHRMQRKVLYRLK

The assay has as its target T1, EGFP-hPMP22-BioID2 recombinant fusion protein (peripheral myelin protein 22) (human). Put plainly: proximity labelling; BioID2 in live stably transfected human Schwann cells, 50 µM biotin for 3 days; RIPA extract, streptavidin Dynabeads pull-down of biotinylated proteins, trypsin digest, LC-MS/MS; compared with control-transfected (EGFP-BioID2) and untransfected CRL cells.
With Integrin alpha-7 (ITGA7) (receptor), the binding result is on record as “binds”.
With “Plasma membrane calcium-transporting ATPase 1 (ATP2B1) (from UniProt P20020 1-1220)” the entry was “binds”; with “Polyadenylate-binding protein 1 (PABPC1) (from UniProt P11940 1-636)”, “binds”.
With “Protein associated with LIN7 1, MAGUK P55 family member (PALS1) (from UniProt Q8N3R9 1-675)” the entry was “binds”.
As to “Vigilin (Fragment) (HDLBP) (from UniProt Q00341 1-1268)”, the binding result is reported as “binds”.
With “integrin β1 (ITGB1) (from UniProt P05556 21-798) (receptor)” the entry was “no binding”; with B1, “binds”.
With B2 the entry was “binds”; with B3, “binds”; with B4, “binds”.
With B5, the binding result is reported as “binds”.
